These are yes or no findings as the source states them, for the method shown. Some entries that bind do so weakly or less than the wild type. Tags and fused reporters may be left off the sequences shown.
Assays:
Test in all cases: two-hybrid
[1] = biological target: T1, Utp18 fused to the GAL4 DNA binding domain (S. cerevisiae) (UniProt P40362)
T1 sequence: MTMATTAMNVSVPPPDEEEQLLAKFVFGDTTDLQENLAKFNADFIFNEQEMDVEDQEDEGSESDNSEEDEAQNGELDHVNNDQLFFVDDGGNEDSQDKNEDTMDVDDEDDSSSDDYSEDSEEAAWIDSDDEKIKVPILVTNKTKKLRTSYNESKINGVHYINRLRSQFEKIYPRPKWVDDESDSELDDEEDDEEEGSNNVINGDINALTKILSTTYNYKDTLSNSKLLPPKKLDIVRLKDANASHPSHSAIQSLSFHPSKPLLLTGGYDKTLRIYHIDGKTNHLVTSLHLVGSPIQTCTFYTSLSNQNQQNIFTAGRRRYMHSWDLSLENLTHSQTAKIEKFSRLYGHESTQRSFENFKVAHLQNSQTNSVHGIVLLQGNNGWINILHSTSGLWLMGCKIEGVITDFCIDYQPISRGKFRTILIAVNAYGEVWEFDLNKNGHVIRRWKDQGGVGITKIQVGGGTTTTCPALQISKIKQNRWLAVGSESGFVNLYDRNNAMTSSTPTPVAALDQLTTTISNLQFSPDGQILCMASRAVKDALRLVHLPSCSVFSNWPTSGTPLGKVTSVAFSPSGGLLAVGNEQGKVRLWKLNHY

[2] = biological target: T2, Noc4 fused to the GAL4 DNA binding domain (S. cerevisiae) (UniProt Q06512)
T2 sequence: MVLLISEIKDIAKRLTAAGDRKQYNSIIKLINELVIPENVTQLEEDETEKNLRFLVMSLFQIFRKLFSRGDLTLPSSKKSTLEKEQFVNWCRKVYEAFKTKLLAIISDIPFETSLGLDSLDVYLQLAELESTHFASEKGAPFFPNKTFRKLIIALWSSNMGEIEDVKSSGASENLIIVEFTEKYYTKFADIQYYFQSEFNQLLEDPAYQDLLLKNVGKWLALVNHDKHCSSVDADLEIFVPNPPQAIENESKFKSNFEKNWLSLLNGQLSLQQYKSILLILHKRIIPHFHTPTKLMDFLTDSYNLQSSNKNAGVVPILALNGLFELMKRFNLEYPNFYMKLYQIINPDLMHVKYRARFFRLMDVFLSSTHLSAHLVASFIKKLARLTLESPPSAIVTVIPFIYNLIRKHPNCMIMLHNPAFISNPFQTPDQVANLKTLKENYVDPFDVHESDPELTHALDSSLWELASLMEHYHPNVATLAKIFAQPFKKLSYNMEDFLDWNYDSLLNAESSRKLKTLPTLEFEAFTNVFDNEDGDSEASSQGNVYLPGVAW

[3] = biological target: T3, Ifh1 fused to the GAL4 DNA binding domain (S. cerevisiae) (UniProt P39520)
T3 sequence: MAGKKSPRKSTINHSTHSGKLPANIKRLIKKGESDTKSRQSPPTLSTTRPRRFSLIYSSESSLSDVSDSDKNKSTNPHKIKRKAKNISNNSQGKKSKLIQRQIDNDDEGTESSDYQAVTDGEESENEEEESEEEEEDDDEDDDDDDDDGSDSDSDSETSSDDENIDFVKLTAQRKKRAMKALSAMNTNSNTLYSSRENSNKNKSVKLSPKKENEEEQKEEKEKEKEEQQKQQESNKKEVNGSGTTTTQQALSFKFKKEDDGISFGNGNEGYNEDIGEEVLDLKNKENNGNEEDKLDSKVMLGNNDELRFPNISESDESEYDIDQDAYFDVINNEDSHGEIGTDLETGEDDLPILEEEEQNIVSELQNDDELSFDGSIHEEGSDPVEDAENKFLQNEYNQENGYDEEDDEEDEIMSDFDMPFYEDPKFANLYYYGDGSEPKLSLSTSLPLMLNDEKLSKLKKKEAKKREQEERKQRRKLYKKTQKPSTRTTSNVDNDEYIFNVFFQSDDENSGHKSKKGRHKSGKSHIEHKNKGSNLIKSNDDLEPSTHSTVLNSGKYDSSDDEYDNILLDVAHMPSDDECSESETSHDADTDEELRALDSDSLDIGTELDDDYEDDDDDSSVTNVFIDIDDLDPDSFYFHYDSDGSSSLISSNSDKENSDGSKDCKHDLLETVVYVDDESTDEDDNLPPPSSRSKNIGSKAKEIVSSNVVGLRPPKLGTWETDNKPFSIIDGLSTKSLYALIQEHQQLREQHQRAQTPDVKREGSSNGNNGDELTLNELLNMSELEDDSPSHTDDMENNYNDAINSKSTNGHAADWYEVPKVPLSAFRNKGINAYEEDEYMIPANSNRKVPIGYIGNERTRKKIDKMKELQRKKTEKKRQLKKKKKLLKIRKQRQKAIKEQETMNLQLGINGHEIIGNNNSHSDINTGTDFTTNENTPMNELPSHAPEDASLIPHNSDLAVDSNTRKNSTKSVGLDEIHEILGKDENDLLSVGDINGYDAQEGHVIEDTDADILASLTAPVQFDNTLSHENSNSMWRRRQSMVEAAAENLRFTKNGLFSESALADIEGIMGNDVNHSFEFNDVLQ

Measured: binding

B1: Stm1 fused to the GAL4 activation domain (protein, UniProt P39015 1-273)
chain: MSNPFDLLGNDVEDADVVVLPPKEIVKSNTSSKKADVPPPSADPSKARKNRPRPSGNEGAIRDKTAGRRNNRSKDVTDSATTKKSNTRRATDRHSRTGKTDTKKKVNQGWGDDKKELSAEKEAQADAAAEIAEDAAEAEDAGKPKTAQLSLQDYLNQQANNQFNKVPEAKKVELDAERIETAEKEAYVPATKVKNVKSKQLKTKEYLEFDATFVESNTRKNFGDRNNNSRNNFNNRRGGRGARKGNNTANATNSANTVQKNRNIDVSNLPSLA
binds: [1] | [2] | [3]
